Laboratory results taken from US10428140B2, “Anti-EphA4 antibody” (EISAI R&D MANAGEMENT CO., LTD., priority 2015, dated 2019).
At least one peptide structure holds a part that was inferred or is arguable (an end, a ring closure or a residue). No end group written: not given here.

By UniProt entry, the sequences of proteins in these tests, tags left out. Chains listed by the source or under a name are the forms on record and can include a tag or linker.
UniProt Q03137, with tags, fused parts or gaps: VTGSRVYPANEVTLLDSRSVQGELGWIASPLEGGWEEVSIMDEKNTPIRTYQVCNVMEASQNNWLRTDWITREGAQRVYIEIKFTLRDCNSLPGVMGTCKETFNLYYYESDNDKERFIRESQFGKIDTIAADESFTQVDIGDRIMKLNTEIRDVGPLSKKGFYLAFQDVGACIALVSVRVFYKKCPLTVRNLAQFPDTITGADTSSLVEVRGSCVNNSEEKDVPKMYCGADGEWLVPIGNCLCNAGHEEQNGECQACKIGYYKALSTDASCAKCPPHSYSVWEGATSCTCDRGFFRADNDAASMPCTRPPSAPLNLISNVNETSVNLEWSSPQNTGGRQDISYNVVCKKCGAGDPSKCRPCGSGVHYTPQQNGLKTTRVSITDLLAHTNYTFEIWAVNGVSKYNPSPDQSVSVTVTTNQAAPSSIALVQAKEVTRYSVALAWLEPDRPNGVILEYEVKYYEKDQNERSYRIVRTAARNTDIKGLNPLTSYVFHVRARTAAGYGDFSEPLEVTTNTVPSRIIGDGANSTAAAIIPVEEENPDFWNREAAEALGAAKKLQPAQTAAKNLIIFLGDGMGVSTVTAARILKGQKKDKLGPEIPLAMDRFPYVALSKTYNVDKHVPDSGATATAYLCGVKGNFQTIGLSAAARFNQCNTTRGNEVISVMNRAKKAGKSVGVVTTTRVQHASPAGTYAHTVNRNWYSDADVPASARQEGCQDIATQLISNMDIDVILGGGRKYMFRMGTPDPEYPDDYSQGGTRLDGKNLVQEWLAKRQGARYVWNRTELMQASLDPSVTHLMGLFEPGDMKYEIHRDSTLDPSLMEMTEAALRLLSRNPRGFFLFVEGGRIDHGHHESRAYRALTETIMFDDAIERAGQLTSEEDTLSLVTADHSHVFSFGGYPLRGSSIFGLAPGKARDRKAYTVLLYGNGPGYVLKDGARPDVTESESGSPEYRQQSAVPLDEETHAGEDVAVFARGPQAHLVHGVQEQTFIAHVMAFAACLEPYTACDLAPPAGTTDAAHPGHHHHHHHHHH

Assays:
[1] = biological target: T1, mouse EphA4 (binding to mouse Ephrin B2) (Mus musculus, UniProt Q03137); assay: Mouse EphA4-mouse ligand binding inhibition ELISA (Ephrin B2-Fc)
T1 construct: made in house; host or cells: HEK293EBNA cells

[2] = biological target: T1, mouse EphA4 (binding to mouse Ephrin B2); assay: Mouse EphA4-mouse ligand binding inhibition ELISA of fragments (biotinylated Ephrin B2-Fc); conditions: biotinylated mouse Ephrin B2-Fc 2.5 nM
rat hippocampal neurons = assay: Ligand-induced growth cone collapse in hippocampal neurons; format: cell-based; conditions: antibody A 0.1, 0.3, 1 μM; KYL peptide 10, 30, 100 μM
Method: Rat hippocampal neurons were prepared as described in Example 10 above. The cells were inoculated to a 96-well plate (Greiner Bio-One) coated with poly-L-lysine containing culture solution.
The growth cone collapse assay using the hippocampal neurons was conducted according to the following steps. The rat hippocampal neurons of culture day 2 inoculated to the 96-well dish (Greiner Bio-One) were treated with PBS (Wako Pure Chemical Industries), antibody A (0.1, 0.3, and 1 μM), or an EphA4 inhibitor KYL peptide (KYLPYWPVLSSL, 10, 30, and 100 μM, its synthesis was outsourced to Toray Research Center) for 15 minutes and then treated with goat anti-human Fcγ fragment IgG1 antibody (Jackson ImmunoResearch Laboratories)-preclustered mouse Ephrin A1-Fc chimera (R&D Systems, final concentration: 1 μg/mL) (ratio: 1:5) for 30 minutes. Then, the culture solution was removed, and 2% PFA (Wako Pure Chemical Industries)/4% sucrose (Wako Pure Chemical Industries)/PBS was added, and left standing for 20 minutes to fix the cells. The solution was removed, and the cells were washed with PBS three times, followed by the addition of 0.25% Triton X-100 (Wako Pure Chemical Industries)/PBS for cell penetration treatment for 15 minutes. […] Neurons forming growth cone were counted in 30 fields of view per sample to calculate the proportion of the number of neurons causing growth cone collapse.

[3] = tested on: mouse ES cell derived-motor neuron / variant human SOD1 (G93A)-expressing astrocyte coculture; assay: Motor neuron protection in in vitro ALS model derived from mouse ES cells; format: cell-based; conditions: antibody A 10, 30, 100 nM; EphA4-Fc 3, 10, 30 nM; KYL peptide 1, 3, 10 μM; 2 days
Method: Mouse ES cells were maintained and cultured according to the following steps. Mouse ES cells (129×1/SvJ) cryopreserved at −80° C. were thawed in a thermostat bath and then diluted with a mouse ES cell culture medium (KnockOut(TM) DMEM (Gibco) containing 10% fetal bovine serum (FBS, Gibco), 0.1 mM β-mercaptoethanol (Gibco), 1 mM sodium pyruvate (Invitrogen), 2 mM L-glutamine (Invitrogen), 1% nonessential amino acids (Invitrogen), 100 units/mL penicillin-100 μg/mL streptomycin (Invitrogen), and 1000 units/mL ESGRO(R) leukemia inhibitory factor (Merck Millipore)) warmed to 37° C. Each cell suspension was centrifuged (1500 rpm, 3 min, room temperature), followed by the removal of the supernatant. The cells were suspended in a fresh medium, then transferred to a culture dish with feeder cells inoculated in advance, and maintained and cultured in a CO2 incubator (5% CO2, 37° C.).
Astrocytes were established from a mouse newborn and maintained and cultured according to the following steps. A two-day-old wild-type mouse newborn (C57BL/6JJmsSlc (Japan SLC)) and a hybrid mouse newborn of a wild-type mouse and a variant human SOD1 (G93A) Tg-(B6.Cg-Tg(SOD1_G93A)1Gur/J ([…])) mouse were each euthanized by inhalation anesthesia with isoflurane (Intervet) or decapitation. […]

[4] = tested on: EphA4 autophosphorylation induced by mouse Ephrin A1; assay: Ligand-induced EphA4 autophosphorylation in hippocampal neurons; format: cell-based; conditions: rat hippocampal neurons, mouse Ephrin A1-Fc 10 nM, 45 minutes
[5] = tested on: human iPS cell-derived motor neuron / variant human SOD1 (G93A)-expressing astrocyte coculture; assay: Motor neuron protection in in vitro ALS model derived from human iPS cells; format: cell-based; conditions: antibody A 10, 30, 100 nM; EphA4-Fc 3, 10, 30 nM; KYL peptide 1, 3, 10 μM; 2 days
Method: Human iPS cells were maintained and cultured according to the following steps. Human iPS cells (201B7) cryopreserved in liquid nitrogen using Stem cell banker (TAKARA) were taken out of the gas phase of liquid nitrogen and immediately suspended and thawed in 5 mL of a human iPS cell culture medium (Essential 8, Thermo Fisher Scientific) prewarmed to 37° C. The cell suspension was recovered into a 15-mL conical tube (Falcon) and centrifuged (1000 rpm, 5 min, room temperature), followed by the removal of the supernatant. The cells were suspended in a fresh medium and then disseminated to a ϕ60 mm cell culture dish (Falcon BD) coated with 0.5 μg/cm^2 Human recombinant vitronectin (Invitrogen) in advance. 10 μM Y-27632 (Wako Pure Chemical Industries) was added thereto, and the cells were maintained and cultured in a CO2 incubator (5% CO2, 37° C.). Medium replacement was performed every day, and the cells were subjected to the experiment when reaching confluency.
The culture medium of the maintained and cultured human iPS cells was aspirated, and the cells were washed with 2 mL of PBS (Wako Pure Chemical Industries). […] Then, the number of cells was counted using a counting chamber. […]

[6] = biological target: T2, mouse EphA4 (binding to mouse Ephrin A1) (Mus musculus, UniProt Q03137); assay: Mouse EphA4-mouse ligand binding inhibition ELISA (Ephrin A1-Fc)
T2 construct: made in house; host or cells: HEK293EBNA cells
Method: Antibody A obtained in Example 1 was evaluated for its inhibitory activity against the binding between mouse EphA4 and its mouse ligand according to the following steps. Each well of a 96-well plate (Nunc) was coated with an anti-alkaline phosphatase antibody (Thermo Fisher Scientific). After incubation overnight at 4° C., each well was blocked with 1% BlockAce (DS Pharma Biomedical) at room temperature for 1 hour. After washing with 0.05% Tween 20/PBS (Thermo Fisher Scientific) three times, the mouse EphA4 extracellular region-SEAP-His protein obtained by the method of Example 1 was added (final concentration: 10 nM) to each well and incubated at room temperature for 1 hour. After washing three times, ligands and serially diluted antibody A (0, 0.001, 0.003, 0.01, 0.03, 0.1, 0.3, 1,3, 10, 30, 100, 300, and 1000 nM) or a known EphA4 inhibitor KYL peptide (KYLPYWPVLSSL, 0, 0.003, 0.01, 0.03, 0.1, 0.3, 1, 3, 10, 30, and 100 μM, its synthesis was outsourced to Hokkaido System Science) or compound 1 (0, 0.03, 0.1, 0.3, 1,3, 10, 30, 100, 300, and 1000 μM, Formula 1, Matrix Scientific) were added to each well. The ligands used were mouse Ephrin A1-Fc chimera (R&D Systems, final concentration: 20 nM) and mouse Ephrin B2-Fc chimera (R&D Systems, final concentration: 0.6 nM). […] The absorbance at 450 nm was read using a microplate reader (Molecular Devices).

Sequence: KYLPYWPVLSSL [KYL peptide, KYLPYWPVLSSL]
- IC50 [1]: ~1300 nM
- IC50 [2]: 5.29 µM
- suppression of growth cone collapse induced by mouse Ephrin A1 (in words) (rat hippocampal neurons): suppressed, in a concentration-dependent manner
- suppression of motor neuron death / motor neuron protective effect (in words) [3]: motor neuron protective effect
- IC50 [4]: 9.91 µM
- suppression of motor neuron death / motor neuron protective effect (in words) [5]: human iPS cell-derived motor neuron protective effect
- IC50 [6]: ~1300 nM
